Source: ChEMBL document CHEMBL3988442, “University of Dundee, Small-Polar-MMV Screening Library” (2021).

A: 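Whole-parasite assay of Trypanosoma brucei over 72 hours; the read-out is not stated. Compounds at 30 µM. The record gives no direction; compounds that gave an IC50 in retests scored well above the rest, so higher reads as stronger inhibition. Values scatter widely below zero; nearly all retest evidence comes from the higher of the two concentrations used. Size under these conditions: about 64,000 compounds, about 940 of them at 50% or above in at least one test.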
B: 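Assay of Toxoplasma gondii numbers, read through their beta-galactosidase reporter with a colour substrate. Tested at 10 µM. The record gives no direction; the compounds picked for IC50 retests had high values, so higher reads as fewer parasites. Size under these conditions: about 67,000 compounds, about 260 of them at 50% or above in at least one test.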

Results are given as percent effect. How 0% and 100% were set is not recorded. Most values in the screen are low, and negative values occur. The compounds are a random part of those screened.

With COCC(=O)N1CCC2(CCCN(Cc3ccc(Cl)cc3)CC2)CC1 the screen gave B: -18.71%. For CSc1c(CC(=O)O)n(C)c2ccccc12 the result was A: -13.41%; B: 19.61%. O=C(CCc1cccs1)NCC1CCCN1c1cccnn1 (stereo unspecified) read A: -44.11%; B: 6.861%. NCc1n[nH]c(=O)n1-c1ccccc1Oc1ccccc1 gave A: -9.96%; B: -0.05294%. Cc1nn(C)c(C)c1C1CCCN1C(=O)CCCn1cccn1 (stereo unspecified) gave A: -59.64%; B: -5.964%.

With COC(CNC(=O)C1CCN(S(C)(=O)=O)CC1)c1ccc(C)s1 (stereo unspecified) the screen gave A: -0.2434%; B: -3.907%. Result for CCc1cc(CN(C)C(=O)c2cnc3c(c2)nc(N)n3CC)on1 was A: 7.33%; B: -0.2837%. With CC(=O)c1ccn(CC(=O)Nc2nn(CC3CC3)c3ccccc23)n1 the screen gave A: -21.2%; B: 7.093%. For CC(C)(C)Cc1noc2ncc(C(=O)N3CCC3)cc12 the result was A: -13.64%; B: -7.369%. For CN(CCc1ccccn1)C(=O)Nc1cccnc1N1CCCC1 the result was A: -42.28%; B: 10.64%.

c1cncc(-c2nnc(C3(c4ccc5c(c4)OCO5)CCOCC3)o2)c1 gave A: -14.32%; B: 0.952%. Result for CCCC(C(=O)NC1CCN(S(C)(=O)=O)CC1)n1cccc1 (stereo unspecified) was A: -17.71%; B: 15.73%. For O=C(O)C(F)(F)F.O=C(O)C(F)(F)F.[H][C@@]12CCN(C(=O)CC(C)C)CC[C@]1(C(=O)Nc1cccnc1)CCN2C the result was A: -99.25%; B: 6.738%. CN(CC1Cc2ccccc2CN1C)C(=O)CSc1ccccn1 (stereo unspecified) read A: -4.931%; B: 19.56%. For Cc1noc(C)c1C1CCCN1CCC(=O)N1CCc2ccccc2C1 (stereo unspecified) the result was A: -14.79%; B: -8.78%.

O=C(N1CCCC1)N1CCC[C@]2(C[C@@H](OCc3ccncc3)CO2)C1.O=C(O)C(F)(F)F read A: -9.065%; B: 0%. With Cc1nc(C2CCN(C(=O)COC(C)C)CC2)cc(N2CCOCC2)n1 the screen gave A: -38.5%; B: 4.573%. CC(C)c1n[nH]c(C2CN(C(=O)c3cc4c(s3)CCC4)CCO2)n1 (stereo unspecified) gave B: 9.125%. For O=C(O)c1ccnc(-c2ccnc(NCCc3nc4c(s3)CCC4)n2)c1 the result was A: 8.907%; B: -40.86%. For Cc1n[nH]c(C)c1-c1c(C#N)c(N)nc2c1CCc1[nH]ccc1-2 the result was A: 52.57%; B: 13.34%.

CCN(CC)C(=O)[C@@H]1C[C@H](N)CN1C(=O)c1cc2c([nH]c1=O)CCC2 gave A: -32.28%; B: 4.28%. Result for Cc1ccc(N2CCCC(NC(=O)Cc3csc(C)n3)C2=O)cc1 (stereo unspecified) was A: -42.55%; B: -11.68%. Result for [H][C@]12CCCC(=O)N[C@@]1(C)CCCCN2C(=O)c1cn2c(C)cccc2n1 was A: -21.38%; B: -8.811%. Cc1cc(C)c2c(N3CCCN(C(=O)C4CCC4)CC3)ncnc2n1 read A: -7.34%; B: 1.249%. For Cc1cc(C)n(C2CCCN(C(=O)CN(C)c3cnccn3)C2)n1 (stereo unspecified) the result was A: -38.46%; B: 9.465%.

O=C(NCC1CC1)C1CCC2(CCN(C(=O)c3cccs3)CC2)O1 (stereo unspecified) gave A: -41.85%; B: -9.836%. Result for Cc1cc(NC(=O)N2CCN(C)CC2C)n(Cc2ccccc2)n1 (stereo unspecified) was A: -30.57%; B: -4.172%. With Cn1ccc2ccnc(CC3CN(C(=O)C4CCC(F)(F)CC4)C3)c21 the screen gave A: 13.96%; B: -3.78%. For [H][C@]12CC[C@]([H])(CN(c3nccnc3OC)C1)N(CC=C(C)C)C2=O the result was A: -1.698%; B: -11.65%. COc1cccc(C(C)Nc2ncnc3c2NC(=O)CN3)c1 (stereo unspecified) gave A: -17.51%; B: -2.654%.

Fc1ccc(CNCCn2cccn2)cc1F read A: -47.39%; B: -0.3544%. For O=S(=O)(c1ccc(F)cc1)N1CCN(CCCn2ccnc2)CC1 the result was A: -8.463%; B: -5.043%. Result for O=C(O)C(F)(F)F.O=C(O)C(F)(F)F.[H][C@@]12OCCN(Cc3ccc(F)cc3)[C@@]1([H])CC[C@H]2OCCN1CCCC1 was A: 9.881%; B: 0.1068%. Result for O=C(Nc1cc(C(F)(F)F)c[nH]c1=O)C1CCNCC1 was A: -29.94%. Result for CC(=O)N[C@@H](CC(C)C)C(=O)N1CCC(n2cc(CC(C)C)nn2)CC1 was A: -34.06%; B: -7.515%.

CCN(CC1CN(Cc2c(C)noc2C)CCO1)c1cccnn1 (stereo unspecified) gave A: -5.254%; B: -1.512%.

Once more, the final 5:

{"structure": "O=S(=O)(c1ccc(F)cc1)N1CCN(CCCn2ccnc2)CC1", "A": -8.463, "B": -5.043}
{"structure": "O=C(O)C(F)(F)F.O=C(O)C(F)(F)F.[H][C@@]12OCCN(Cc3ccc(F)cc3)[C@@]1([H])CC[C@H]2OCCN1CCCC1", "A": 9.881, "B": 0.1068}
{"structure": "O=C(Nc1cc(C(F)(F)F)c[nH]c1=O)C1CCNCC1", "A": -29.94}
{"structure": "CC(=O)N[C@@H](CC(C)C)C(=O)N1CCC(n2cc(CC(C)C)nn2)CC1", "A": -34.06, "B": -7.515}
{"structure": "CCN(CC1CN(Cc2c(C)noc2C)CCO1)c1cccnn1", "stereo": "stereo unspecified", "A": -5.254, "B": -1.512}